According to paper PMC8255618:
Results are given in words; binding and its absence hold for the method and conditions named. Binding seen in cells or lysates may run through a third protein. Some binding calls cover weakened binding; strength is not graded here.

Sequences of proteins named here, by UniProt entry; tags and fusion partners are left off. A change or cut given only in a name is not applied to a line headed by its entry. A line that says so, or that is headed by a name, gives the form on record, which may keep a tag or linker. Residues count along the entry.
HA-tagged wild type Pfn1 (profilin-1) (P07737, residues 2-140): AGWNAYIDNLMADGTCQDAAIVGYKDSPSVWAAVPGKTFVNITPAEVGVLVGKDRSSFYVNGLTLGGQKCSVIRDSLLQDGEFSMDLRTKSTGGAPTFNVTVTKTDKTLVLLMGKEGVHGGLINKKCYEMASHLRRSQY
HA-tagged Pfn1(S71A) (P07737, form named): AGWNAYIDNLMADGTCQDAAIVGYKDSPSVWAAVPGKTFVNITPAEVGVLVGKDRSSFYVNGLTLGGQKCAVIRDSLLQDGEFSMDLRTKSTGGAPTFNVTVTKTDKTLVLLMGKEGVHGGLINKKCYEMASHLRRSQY
HA-tagged Pfn1(S71D) (P07737, form named): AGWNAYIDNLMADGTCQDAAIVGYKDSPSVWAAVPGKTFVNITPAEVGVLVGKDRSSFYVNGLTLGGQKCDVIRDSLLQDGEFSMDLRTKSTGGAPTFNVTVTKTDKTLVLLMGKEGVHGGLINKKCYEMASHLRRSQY
UniProt P50552: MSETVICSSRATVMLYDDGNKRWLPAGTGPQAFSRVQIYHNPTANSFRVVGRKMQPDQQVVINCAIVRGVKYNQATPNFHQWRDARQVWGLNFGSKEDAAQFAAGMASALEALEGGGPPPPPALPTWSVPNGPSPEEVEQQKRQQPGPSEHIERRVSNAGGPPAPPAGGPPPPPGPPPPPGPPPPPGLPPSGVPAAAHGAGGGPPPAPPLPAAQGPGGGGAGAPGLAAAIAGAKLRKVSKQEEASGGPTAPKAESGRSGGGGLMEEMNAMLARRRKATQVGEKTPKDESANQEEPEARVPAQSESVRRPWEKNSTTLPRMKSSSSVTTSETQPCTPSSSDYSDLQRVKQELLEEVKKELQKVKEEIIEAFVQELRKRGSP

Columns and labels:
Experiment in all cases: co-IP; HEK293T transfected with HA-tagged Pfn1 (WT, S71A or S71D), lysed by RIPA buffer, immunoprecipitation with anti-HA antibody, Western blot for actin and VASP
[1] = target: HA-tagged Pfn1(S71A) (human) (UniProt P07737)
[2] = target: HA-tagged Pfn1(S71D) (human) (UniProt P07737)
[3] = target: HA-tagged wild type Pfn1 (profilin-1) (human) (UniProt P07737)

Measured: binding

vasodilator-stimulated phosphoprotein (VASP) (from UniProt P50552 1-380)
binds: all assays above
